For at least one compound, name, drawing or mass did not settle the structure.
System: MyoD
Test: MyoD1 immunofluorescence staining in D-HSMM
Type: cell-based, human
Settings: 48 h, optimum concentration, vs. D-HSMM control (non-treated cells), FIG. 5A
Protocol: The supernatant was removed, cells were washed with warm PBS (37° C.), fixed, and permeabilized with 100 μl phosphate-buffered saline (PBS) containing 4% paraformaldehyde and 0.1% Triton X-100 at room temperature for 10 mins. Next, cells were blocked with 1% BSA (100 μl) in PBS at room temperature for 1 hour. The cells were then incubated with 50 μl of primary anti-MyoD1 antibody (Cat no: ab16148, Abcam, USA), diluted 1:100 in a block solution, overnight at 4° C. Cells were washed in PBS three times, incubated with 50 μl Goat anti-Mouse IgG (H+L) secondary antibody (Cross adsorbed, Alexa Fluor 594, Cat no: R37121, Thermo Fisher Scientific, USA) at room temperature for 30 min. Nuclei were counterstained with 1 μg/ml Hoechst 33342 solution (Cat no: 62249, Thermo Fisher Scientific, USA) in PBS (100 μl/well). For each treatment, cells were examined under EVOS F1 Microscope (Cat no: AMF4300, Life Technologies, USA) and photographed. Approximately 10-12 digital photographs were taken of each treatment for subsequent offline analysis. The total number of immune-positive and immuno-negative cells were counted using Image J (NIH, USA) software. […] Data were presented as a percentage of control (untreated cells).

CCc1ccc(CCOc2ccc(CC3SC(=O)NC3=O)cc2)nc1 (stereo not shown) [Pioglitazone]
MyoD positive cells: significantly decreased expression

Reference: patent US20250195599A1, “ANTI-DIABETIC STEROIDAL LACTONES OF WITHANIA COAGULANS FOR TREATMENT OF TYPE 2 DIABETES” (Khalifa University of Science and Technology, priority 2022, published 2025)
